Experimental data reported in patent US12318388B2, “Pyrimidine derivatives for prevention and treatment of gram-negative bacterial infection, contamination and fouling” (UNIVERSITÉ DE LIÈGE, priority 2019, dated 2025).
Some entries share one result that the patent states for a list of compounds.

Tested on: Pseudomonas aeruginosa (ATCC27853)
Test: Minimal Inhibitory Concentration (MIC) on Pseudomonas aeruginosa with or without PMBN
Type: cell-based
Details: Pseudomonas aeruginosa (ATCC 27853); molecule alone
Experimental: A single colony grown on an tryptic soy agar plate is resuspended and cultured in tryptic soy broth medium overnight (O/N) in aerobic conditions (37° C. with 220 rpm shaking), next day a 1:100 inoculum in Mueller-Hinton broth (MHB) is incubated in aerobic conditions for 3h (OD=0.5-0.6) and an inoculum of 1:1000 dilution, corresponding to 1-3×10^5 CFU/ml, is incubated in presence or absence of different concentrations of the tested molecules in 1% DMSO (vehicle) with or without PMBN at 0.5 μg/ml. After 28-30h growth the OD of each culture was measured at 600 nm (OD600) in a spectrophotometer (Victor 3-Perkin Elmer). The MIC represents the concentration at which there is no visible growth of bacteria, i.e. ΔOD at 600 nm equal to zero (blank is the medium alone) wherein ΔOD is the difference between the resulting optical density (OD) with the molecule together with PMBN, and the optical density (OD) of the blank (blank is the medium) alone.

SMILES | Minimal inhibitory concentration without PMBN [µM]
CCCSc1nc(N[C@@H]2C[C@H]2c2ccc(F)c(F)c2)c2ncn(C)c2n1 [molecule 2329, N-((1R,2S)-2-(3,4-difluorophenyl)cyclopropyl)-9-methyl-2-(propylthio)-9H-purin-6-amine] | > 100
C=CCn1cnc2c(N[C@@H]3C[C@H]3c3ccc(F)c(F)c3)nc(SCCC)nc21 [molecule 2412, 9-allyl-N-((1R,2S)-2-(3,4-difluorophenyl)cyclopropyl)-2-(propylthio)-9H-purin-6-amine] | > 100
C#CCn1cnc2c(N[C@@H]3C[C@H]3c3ccc(F)c(F)c3)nc(SCCC)nc21 [molecule 2452, N-((1R,2S)-2-(3,4-difluorophenyl)cyclopropyl)-9-(prop-2-yn-1-yl)-2-(propylthio)-9H-purin-6-amine] | > 100
CCCSc1nc(N[C@@H]2C[C@H]2c2ccc(F)c(F)c2)c2ncn([C@@H]3C[C@H](O)[C@@H](O)[C@H]3O)c2n1 [molecule 2461, (1S,2R,3S,4R)-4-(6-(((1R,2S)-2-(3,4-difluorophenyl)cyclopropyl)amino)-2-(propylthio)-9H-purin-9-yl)cyclopentane-1,2,3-triol] | > 100
